## Assay results

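Plate-reader measure of the Venus reporter marking one vaccinia stage in infected cells (the cell line is not named here); read time unknown.
The test concentration is not given here.
Percent change in Venus reporter signal; lower (more negative) values mean stronger inhibition of that viral stage.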

Values are in %.
How 0% and 100% were set is not given here.
Common to all entries: measured here: Venus reporter, other viral stage.
Part of the compounds only, not a random draw; the main read-out is not listed here.

With COc1cccc(-c2ccc3c(c2)[C@H]2[C@H](CCN2S(=O)(=O)c2ccc(F)cc2)[C@@H](CO)N3C)c1 the assay gave activity change (Venus) -33.97%. C[C@H](CO)N1C[C@H](C)[C@@H](CN(C)Cc2ccc(Oc3ccccc3)cc2)Oc2ccc(NC(=O)Cc3ccccc3)cc2CC1=O read activity change (Venus) -27.7%. C/C=C/c1ccc2c(c1)O[C@H](CN(C)Cc1cccc(F)c1)[C@@H](C)CN([C@@H](C)CO)S2(=O)=O read activity change (Venus) -49.14%. With C[C@H](CO)N1C[C@H](C)[C@@H](CN(C)S(=O)(=O)c2ccc(Cl)cc2)OCCCC[C@H](C)Oc2ccc(NS(=O)(=O)c3cccs3)cc2C1=O the assay gave activity change (Venus) -26.82%. Result for C[C@@H]1CN([C@@H](C)CO)C(=O)c2cc(NC(=O)Nc3ccccc3)ccc2O[C@@H](C)CCCCO[C@@H]1CN(C)CC1CCCCC1 was activity change (Venus) -44.27%. COc1ccc(S(=O)(=O)Nc2cccc3c2O[C@@H](CN(C)C(=O)NC2CCCCC2)[C@@H](C)CN([C@H](C)CO)C3=O)cc1 gave activity change (Venus) -34.52%. Result for COc1cccc(NC(=O)N(C)C[C@H]2Oc3cc(/C=C/c4ccccc4)ccc3S(=O)(=O)N([C@H](C)CO)C[C@@H]2C)c1 was activity change (Venus) -44.41%. With Cc1cccc(-c2ccc(C3[C@@H]4CN(C(=O)Nc5ccc(C(F)(F)F)cc5)C[C@H]3N4)cc2)c1 (some centres not stated) the assay gave activity change (Venus) -85.75%.

Result for CN1C(=O)c2cc(NS(=O)(=O)c3ccc(Cl)cc3)ccc2OC[C@H]2O[C@@H](CC(=O)N3CCc4ccccc4C3)CC[C@@H]21 was activity change (Venus) -26.64%. Result for C[C@@H]1CN([C@H](C)CO)C(=O)Cc2cc(NC(=O)Cc3cn(C)c4ccccc34)ccc2O[C@@H]1CN(C)Cc1ccc(Cl)c(Cl)c1 was activity change (Venus) -37.86%. With O=C(C1=C[C@H](c2ccc(Br)cc2)C[C@H](OCCCCO)O1)N1CCN(Cc2ccc3c(c2)OCO3)CC1 the assay gave activity change (Venus) -31.58%. For O=C(C[C@@H]1CC[C@H]2[C@@H](COC[C@@H](O)CN2Cc2cccc(Cl)c2)O1)NCC1CCCCC1 the result was activity change (Venus) -33.82%. Cc1ccc(-c2ccc([C@H]3[C@@H](CO)N4CCCCN(S(=O)(=O)c5ccccc5C)C[C@@H]34)cc2)cc1 read activity change (Venus) -30.11%. Result for C[C@H](CO)N1C[C@H](C)[C@H](CN(C)Cc2ccccc2)OCCCC[C@H](C)Oc2ccc(NC(=O)Cc3ccccc3)cc2C1=O was activity change (Venus) -40.35%. O=C(C[C@H]1CC[C@H]2[C@@H](COC[C@@H](O)CN2Cc2cccc(-c3ccncc3)c2)O1)N1CCN(c2ccccc2)CC1 read activity change (Venus) -25.66%. For C[C@H]1CCCCO[C@H](CN(C)Cc2ccc(Cl)c(Cl)c2)[C@@H](C)CN([C@@H](C)CO)C(=O)c2cc(NC(=O)CCC(F)(F)F)ccc2O1 the result was activity change (Venus) -79.21%.

Result for C[C@@H]1CN([C@@H](C)CO)S(=O)(=O)c2ccc(C#CC3CC3)cc2O[C@@H]1CN(C)Cc1ccc(F)cc1 was activity change (Venus) -68.77%. For COc1ccc2c3c(n(C)c2c1)[C@H](CO)N(Cc1ccncc1)CC31CCN(C(=O)C2CCCC2)CC1 the result was activity change (Venus) -18.72%. CC(C)CC#Cc1ccc([C@H]2[C@@H](CO)N3C(=O)CN(S(=O)(=O)c4cccc(F)c4)C[C@H]23)cc1 read activity change (Venus) -47.62%. CN(C)CC(=O)N1CCCCN2[C@H](C1)[C@H](c1ccc(/C=C/c3ccccc3)cc1)[C@@H]2CO read activity change (Venus) -78.94%. For C[C@@H]1CCCCO[C@H](CN(C)C(=O)C2CCCCC2)[C@H](C)CN([C@@H](C)CO)C(=O)c2cc(N(C)C)ccc2O1 the result was activity change (Venus) -19.33%. C[C@H](CO)N1C[C@H](C)[C@H](CN(C)Cc2cccc3c2OCCCO3)OCc2ccccc2-c2c(n(C)c3ccccc23)C1=O read activity change (Venus) -38.7%. With CN(C)CC(=O)Nc1ccc2c(c1)[C@H]1C[C@H](CC(=O)NCc3ccc(-c4ccccc4)cc3)O[C@H](CO)[C@H]1O2 the assay gave activity change (Venus) -27.08%. With COc1cccc(CN(C)C[C@H]2OCc3ccccc3-c3c(n(C)c4ccccc34)C(=O)N([C@H](C)CO)C[C@H]2C)c1 the assay gave activity change (Venus) -41.03%.

With C[C@@H]1CN([C@H](C)CO)C(=O)c2cc(NC(=O)C3CCCCC3)ccc2O[C@@H]1CN(C)C(=O)Nc1cccc2ccccc12 the assay gave activity change (Venus) -34.93%. N#C[C@H]1[C@H](c2ccc(-c3cccc(F)c3)cc2)[C@@H](CO)N1C(=O)NC1CCCC1 read activity change (Venus) -39.39%. With CCCC#Cc1ccc2c(c1)O[C@H](CN(C)Cc1cccnc1)[C@@H](C)CN([C@@H](C)CO)S2(=O)=O the assay gave activity change (Venus) -54.83%. For CO[C@@H]1CN(C)C(=O)c2cc(NC(=O)c3ccc(-c4ccccc4)cc3)ccc2OC[C@@H](C)NC[C@@H]1C the result was activity change (Venus) -81.3%. Cc1ccc(S(=O)(=O)N(C)C[C@@H]2Oc3ncc(C#Cc4ccc(C(F)(F)F)cc4)cc3C(=O)N([C@H](C)CO)C[C@@H]2C)cc1 read activity change (Venus) -45.42%. For C[C@H]1CCCCO[C@H](CN(C)CC2CCCCC2)[C@@H](C)CN([C@@H](C)CO)C(=O)c2cc(NC(=O)Nc3ccccc3)ccc2O1 the result was activity change (Venus) -79.61%. C[C@@H]1CN([C@@H](C)CO)S(=O)(=O)c2ccc(C3=CCCCC3)cc2O[C@H]1CN(C)C(=O)Cc1ccccc1 read activity change (Venus) -46.39%. C[C@@H]1CCCCO[C@H](CN(C)Cc2ccc(C(F)(F)F)cc2)[C@H](C)CN([C@@H](C)CO)C(=O)c2cc(NC(=O)NC3CCCCC3)ccc2O1 read activity change (Venus) -43.66%.

COCC(=O)N1CC[C@@H]2[C@H](CO)Nc3ccc(-c4cccc(C#N)c4)cc3[C@@H]21 gave activity change (Venus) -26.07%. Result for N#Cc1cccc(-c2ccc([C@H]3[C@H](CO)N4CCCCN(C(=O)Nc5cccc(F)c5)C[C@@H]34)cc2)c1 was activity change (Venus) -49.1%. N#C[C@H]1[C@@H](c2ccc(C#Cc3ccc(F)cc3)cc2)[C@H](CO)N1C(=O)C1CCCC1 read activity change (Venus) -39.02%. CCCN(C)C[C@H]1OCCCC[C@@H](C)Oc2ccc(NC(=O)c3ccccc3)cc2C(=O)N([C@H](C)CO)C[C@H]1C read activity change (Venus) -34.72%. C[C@@H]1CN([C@H](C)CO)C(=O)c2cccc(NC(=O)Nc3ccc4c(c3)OCO4)c2O[C@H]1CN(C)Cc1ccc(C(F)(F)F)cc1 gave activity change (Venus) -35.53%. O=C(Nc1ccccc1)N1CCCCN2[C@H](CO)[C@H](c3ccc(-c4ccccc4F)cc3)[C@@H]2C1 read activity change (Venus) -48.63%.

The last 3 entries again:

Compound,activity change (Venus) (%)
CCCN(C)C[C@H]1OCCCC[C@@H](C)Oc2ccc(NC(=O)c3ccccc3)cc2C(=O)N([C@H](C)CO)C[C@H]1C,-34.72
C[C@@H]1CN([C@H](C)CO)C(=O)c2cccc(NC(=O)Nc3ccc4c(c3)OCO4)c2O[C@H]1CN(C)Cc1ccc(C(F)(F)F)cc1,-35.53
O=C(Nc1ccccc1)N1CCCCN2[C@H](CO)[C@H](c3ccc(-c4ccccc4F)cc3)[C@@H]2C1,-48.63

From PubChem BioAssay record AID1053133 (Broad Institute, 2014).